The results in this text go back to patent publication US20200306295A1, “METHOD AND DEVICE FOR ANNIHILATION OF Staphylococcus aureus” (priority 2017, published 2020).

The structures appear in SMILES notation.

The test system of this assay is stationary-phase MRSA. The settings on record: endogenous fluorescence.

For `O=C(O)c1cn(C2CC2)c2cc(N3CCNCC3)c(F)cc2c1=O` [ciprofloxacin], the “intracellular uptake with laser treatment vs untreated” value was “increased fluorescence signal”.
